Results reported in US20190292155A1, “THERAPEUTIC INHIBITORY COMPOUNDS” (LifeSci Pharmaceuticals, Inc., priority 2016, published 2019).
The match of structure and compound is tentative.

Amino acid sequences for entries named in this document (tags omitted). Residues count along the entry.
UniProt P00746, 26-253 limits assumed: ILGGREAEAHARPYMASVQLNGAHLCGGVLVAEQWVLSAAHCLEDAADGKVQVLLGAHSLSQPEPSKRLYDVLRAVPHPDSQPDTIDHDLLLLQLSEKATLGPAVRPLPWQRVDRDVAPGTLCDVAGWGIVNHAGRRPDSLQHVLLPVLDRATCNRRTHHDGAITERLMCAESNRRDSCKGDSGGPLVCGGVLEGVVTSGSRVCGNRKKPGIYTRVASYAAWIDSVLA

Target: human complement factor D (Homo sapiens, UniProt P00746)
Experiment: In vitro enzyme inhibition of human complement factor D (Z-Lys-SBzl/DTNB, A405)
Details: read-out: CFD IC50; biochemical assay, substrate Z-Lys-SBzl

SMILES	IC50 [nM]
NC(=O)c1nn(CC(=O)N(CC(=O)NCc2cccc(F)c2Cl)C(CF)CF)c2ccccc12	1000 to 10000
CC(CCN)N(CC(=O)NCc1cccc(F)c1Cl)C(=O)Cn1nc(C(N)=O)c2ccccc21 (centres unmarked)	100 to 1000
